Results on 1 compound are retold here after article PMC5085626, “Characterization of a β-Adrenergic-Like Octopamine Receptor in the Oriental Fruit Fly, Bactrocera dorsalis (Hendel)” (International Journal of Molecular Sciences, 2016).

The chains behind the UniProt entries cited, without tags or fusion partners.
UniProt A0ABM3J3U4, entry or part of it: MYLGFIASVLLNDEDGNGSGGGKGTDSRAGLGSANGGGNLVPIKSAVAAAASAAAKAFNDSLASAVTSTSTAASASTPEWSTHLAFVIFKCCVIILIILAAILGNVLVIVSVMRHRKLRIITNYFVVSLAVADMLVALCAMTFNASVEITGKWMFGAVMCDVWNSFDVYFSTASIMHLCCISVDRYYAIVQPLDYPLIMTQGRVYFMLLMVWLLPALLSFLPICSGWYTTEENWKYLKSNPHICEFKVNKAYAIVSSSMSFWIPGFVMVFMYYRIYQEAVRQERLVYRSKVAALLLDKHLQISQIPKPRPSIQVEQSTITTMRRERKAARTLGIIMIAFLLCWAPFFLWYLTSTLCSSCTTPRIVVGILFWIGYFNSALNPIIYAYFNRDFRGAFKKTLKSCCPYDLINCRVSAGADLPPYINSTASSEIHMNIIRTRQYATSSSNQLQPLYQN

Where a name gives a salt, the structure may show the parent alone.

The target in this test is BdOctβR1 (Bactrocera dorsalis, UniProt A0ABM3J3U4). Description: cell-based.

As a reminder, the IC50 is the point on the concentration scale where inhibition reaches its midpoint. In turn, `CN1CCN2c3ccccc3Cc3ccccc3C2C1` (stereo not shown) [mianserin, mianserin hydrochloride] had an IC50 of 484 nM.
